Laboratory results as given in the supplement of paper PMC6411743.
± gives the standard deviation of the averaged measurements. The entries are a selection whose mix differs from that of the whole data set.

The chains behind the UniProt entries cited, without tags or fusion partners. Where a name states a change or a piece, a line headed by the entry shows the natural chain unless it says otherwise.
UniProt Q9UM22: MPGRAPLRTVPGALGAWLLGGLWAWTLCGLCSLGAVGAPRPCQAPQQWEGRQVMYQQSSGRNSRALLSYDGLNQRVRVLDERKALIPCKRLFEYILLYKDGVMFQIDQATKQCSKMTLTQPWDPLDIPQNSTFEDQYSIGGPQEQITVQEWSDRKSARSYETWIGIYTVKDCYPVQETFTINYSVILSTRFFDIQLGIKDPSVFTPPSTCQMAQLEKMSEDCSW
UniProt Q9UQN3, whole entry: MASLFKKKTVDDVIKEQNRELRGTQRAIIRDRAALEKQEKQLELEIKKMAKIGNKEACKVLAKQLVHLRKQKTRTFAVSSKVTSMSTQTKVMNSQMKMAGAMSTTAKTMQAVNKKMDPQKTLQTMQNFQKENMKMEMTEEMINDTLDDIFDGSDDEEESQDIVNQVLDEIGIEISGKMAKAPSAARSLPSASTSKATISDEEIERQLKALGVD
UniProt Q9UKA4: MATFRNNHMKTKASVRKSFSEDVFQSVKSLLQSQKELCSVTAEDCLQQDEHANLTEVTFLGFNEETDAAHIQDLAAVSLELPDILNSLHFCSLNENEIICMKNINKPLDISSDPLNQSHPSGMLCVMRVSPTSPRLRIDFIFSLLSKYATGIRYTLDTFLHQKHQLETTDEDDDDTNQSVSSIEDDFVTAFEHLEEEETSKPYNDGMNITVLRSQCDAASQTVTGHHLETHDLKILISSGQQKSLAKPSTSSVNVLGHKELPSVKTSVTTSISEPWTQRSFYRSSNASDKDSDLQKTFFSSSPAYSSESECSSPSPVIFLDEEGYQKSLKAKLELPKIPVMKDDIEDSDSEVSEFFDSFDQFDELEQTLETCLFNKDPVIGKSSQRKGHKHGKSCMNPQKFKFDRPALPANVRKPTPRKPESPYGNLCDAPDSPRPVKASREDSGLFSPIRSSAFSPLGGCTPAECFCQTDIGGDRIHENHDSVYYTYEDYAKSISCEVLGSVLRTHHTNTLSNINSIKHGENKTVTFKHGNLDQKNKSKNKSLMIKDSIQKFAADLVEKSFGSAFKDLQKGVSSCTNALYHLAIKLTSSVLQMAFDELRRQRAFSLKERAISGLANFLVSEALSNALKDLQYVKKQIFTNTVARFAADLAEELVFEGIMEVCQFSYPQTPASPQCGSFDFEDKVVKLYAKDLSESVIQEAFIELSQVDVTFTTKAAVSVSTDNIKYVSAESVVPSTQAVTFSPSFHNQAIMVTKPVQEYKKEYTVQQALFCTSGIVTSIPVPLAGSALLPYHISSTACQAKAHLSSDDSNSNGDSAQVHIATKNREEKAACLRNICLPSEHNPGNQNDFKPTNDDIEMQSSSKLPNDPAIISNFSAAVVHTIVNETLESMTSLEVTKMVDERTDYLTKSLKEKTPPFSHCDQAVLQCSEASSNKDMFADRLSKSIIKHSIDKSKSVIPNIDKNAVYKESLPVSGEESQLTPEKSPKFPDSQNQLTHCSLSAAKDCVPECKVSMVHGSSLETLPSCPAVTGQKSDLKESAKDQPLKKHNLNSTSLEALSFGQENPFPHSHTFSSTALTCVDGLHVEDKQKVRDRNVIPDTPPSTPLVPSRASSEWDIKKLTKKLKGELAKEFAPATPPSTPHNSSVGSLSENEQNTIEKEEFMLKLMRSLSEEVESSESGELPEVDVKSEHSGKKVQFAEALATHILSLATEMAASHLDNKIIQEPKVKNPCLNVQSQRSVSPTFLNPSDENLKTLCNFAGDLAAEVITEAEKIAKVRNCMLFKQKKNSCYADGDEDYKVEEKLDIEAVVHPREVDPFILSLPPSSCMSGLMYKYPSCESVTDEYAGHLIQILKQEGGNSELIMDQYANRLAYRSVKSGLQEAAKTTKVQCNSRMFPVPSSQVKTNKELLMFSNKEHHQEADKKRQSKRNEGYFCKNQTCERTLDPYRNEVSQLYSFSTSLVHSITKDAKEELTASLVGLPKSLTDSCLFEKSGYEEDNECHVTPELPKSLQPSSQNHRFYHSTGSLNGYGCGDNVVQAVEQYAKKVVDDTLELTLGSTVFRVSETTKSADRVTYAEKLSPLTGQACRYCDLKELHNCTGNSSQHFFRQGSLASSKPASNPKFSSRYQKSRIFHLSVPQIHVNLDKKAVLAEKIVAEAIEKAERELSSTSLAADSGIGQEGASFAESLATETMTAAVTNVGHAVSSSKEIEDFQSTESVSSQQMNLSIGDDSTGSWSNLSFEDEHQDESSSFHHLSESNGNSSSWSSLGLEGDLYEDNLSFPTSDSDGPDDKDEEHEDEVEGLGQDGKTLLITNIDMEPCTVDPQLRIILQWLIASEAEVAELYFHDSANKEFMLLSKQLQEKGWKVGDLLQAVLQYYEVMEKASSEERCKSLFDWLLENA
UniProt Q9UDY4: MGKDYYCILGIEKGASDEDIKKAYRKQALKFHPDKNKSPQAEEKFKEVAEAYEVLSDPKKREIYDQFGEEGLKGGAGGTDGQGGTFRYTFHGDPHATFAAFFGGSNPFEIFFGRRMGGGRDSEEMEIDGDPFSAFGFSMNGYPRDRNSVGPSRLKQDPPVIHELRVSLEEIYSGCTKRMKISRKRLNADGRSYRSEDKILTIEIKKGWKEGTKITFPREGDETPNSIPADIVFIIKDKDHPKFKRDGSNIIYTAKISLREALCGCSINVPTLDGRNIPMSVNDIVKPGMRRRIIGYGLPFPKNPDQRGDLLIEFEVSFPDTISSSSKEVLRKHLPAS
UniProt Q9UGU5: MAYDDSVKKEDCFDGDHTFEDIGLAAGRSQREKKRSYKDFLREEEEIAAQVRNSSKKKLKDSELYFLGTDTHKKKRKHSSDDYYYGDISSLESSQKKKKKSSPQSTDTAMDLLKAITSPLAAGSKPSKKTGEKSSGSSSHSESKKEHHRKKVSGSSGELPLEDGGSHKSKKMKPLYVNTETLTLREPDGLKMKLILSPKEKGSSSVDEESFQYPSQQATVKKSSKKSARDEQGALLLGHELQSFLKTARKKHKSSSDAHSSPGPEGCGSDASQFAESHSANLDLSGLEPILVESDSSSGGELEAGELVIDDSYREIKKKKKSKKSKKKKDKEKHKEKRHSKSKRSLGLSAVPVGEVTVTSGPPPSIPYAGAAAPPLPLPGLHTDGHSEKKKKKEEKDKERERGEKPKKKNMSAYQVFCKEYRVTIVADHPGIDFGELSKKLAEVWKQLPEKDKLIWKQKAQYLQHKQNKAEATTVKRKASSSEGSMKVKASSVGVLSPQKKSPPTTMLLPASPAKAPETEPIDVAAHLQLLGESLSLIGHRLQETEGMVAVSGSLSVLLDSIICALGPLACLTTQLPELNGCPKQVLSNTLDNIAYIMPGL
UniProt Q9UFW8: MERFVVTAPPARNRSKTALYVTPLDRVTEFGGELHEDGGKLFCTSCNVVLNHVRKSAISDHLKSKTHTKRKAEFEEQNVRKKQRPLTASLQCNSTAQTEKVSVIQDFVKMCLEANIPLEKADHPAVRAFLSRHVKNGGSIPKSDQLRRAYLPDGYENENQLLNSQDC
UniProt Q9UPQ9, whole entry: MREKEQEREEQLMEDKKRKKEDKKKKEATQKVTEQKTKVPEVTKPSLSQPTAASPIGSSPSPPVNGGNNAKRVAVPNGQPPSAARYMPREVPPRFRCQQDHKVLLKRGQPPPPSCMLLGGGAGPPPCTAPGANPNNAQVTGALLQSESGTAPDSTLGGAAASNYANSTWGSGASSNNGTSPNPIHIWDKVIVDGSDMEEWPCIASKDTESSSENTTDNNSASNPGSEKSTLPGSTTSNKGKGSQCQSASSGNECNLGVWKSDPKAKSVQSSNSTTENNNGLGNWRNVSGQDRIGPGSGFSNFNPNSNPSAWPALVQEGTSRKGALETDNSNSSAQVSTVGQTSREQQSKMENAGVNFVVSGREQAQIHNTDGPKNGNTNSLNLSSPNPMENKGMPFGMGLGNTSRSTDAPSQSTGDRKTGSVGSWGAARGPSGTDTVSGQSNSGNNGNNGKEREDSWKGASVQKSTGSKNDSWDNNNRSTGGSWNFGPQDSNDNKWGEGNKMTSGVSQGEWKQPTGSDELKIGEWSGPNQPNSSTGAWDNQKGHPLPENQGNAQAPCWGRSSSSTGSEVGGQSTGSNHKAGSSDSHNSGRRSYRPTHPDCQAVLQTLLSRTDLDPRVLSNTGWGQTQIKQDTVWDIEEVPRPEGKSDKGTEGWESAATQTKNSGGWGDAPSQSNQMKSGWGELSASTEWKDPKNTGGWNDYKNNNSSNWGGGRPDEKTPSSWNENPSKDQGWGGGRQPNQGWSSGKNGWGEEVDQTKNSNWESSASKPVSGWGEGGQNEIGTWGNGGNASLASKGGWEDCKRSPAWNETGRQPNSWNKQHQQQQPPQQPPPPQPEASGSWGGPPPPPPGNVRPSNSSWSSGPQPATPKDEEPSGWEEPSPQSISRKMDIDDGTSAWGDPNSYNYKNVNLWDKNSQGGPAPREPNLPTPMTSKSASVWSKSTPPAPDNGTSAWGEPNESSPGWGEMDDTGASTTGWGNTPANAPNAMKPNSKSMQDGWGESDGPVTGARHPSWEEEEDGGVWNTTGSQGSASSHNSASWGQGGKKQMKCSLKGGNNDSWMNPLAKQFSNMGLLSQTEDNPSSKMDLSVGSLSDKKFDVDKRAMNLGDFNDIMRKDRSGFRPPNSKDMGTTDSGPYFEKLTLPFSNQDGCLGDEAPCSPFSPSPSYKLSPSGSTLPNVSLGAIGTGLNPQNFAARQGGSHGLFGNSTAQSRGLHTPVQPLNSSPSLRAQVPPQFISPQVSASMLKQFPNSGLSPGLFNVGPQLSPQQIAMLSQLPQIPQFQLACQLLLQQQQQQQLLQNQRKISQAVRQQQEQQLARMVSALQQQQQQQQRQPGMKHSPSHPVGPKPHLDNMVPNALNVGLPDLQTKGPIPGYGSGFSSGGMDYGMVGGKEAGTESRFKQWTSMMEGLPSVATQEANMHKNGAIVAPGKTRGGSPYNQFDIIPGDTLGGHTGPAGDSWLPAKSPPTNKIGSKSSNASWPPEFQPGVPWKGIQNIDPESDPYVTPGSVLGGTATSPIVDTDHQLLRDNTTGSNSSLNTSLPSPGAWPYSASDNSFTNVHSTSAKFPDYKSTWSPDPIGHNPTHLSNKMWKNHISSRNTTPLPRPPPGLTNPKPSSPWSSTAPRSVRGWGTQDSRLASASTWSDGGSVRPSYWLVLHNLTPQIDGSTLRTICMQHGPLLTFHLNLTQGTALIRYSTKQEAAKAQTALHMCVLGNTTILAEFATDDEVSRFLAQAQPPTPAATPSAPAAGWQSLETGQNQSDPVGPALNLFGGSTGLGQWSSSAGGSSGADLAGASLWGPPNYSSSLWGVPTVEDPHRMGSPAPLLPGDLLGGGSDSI
UniProt Q9UGP8: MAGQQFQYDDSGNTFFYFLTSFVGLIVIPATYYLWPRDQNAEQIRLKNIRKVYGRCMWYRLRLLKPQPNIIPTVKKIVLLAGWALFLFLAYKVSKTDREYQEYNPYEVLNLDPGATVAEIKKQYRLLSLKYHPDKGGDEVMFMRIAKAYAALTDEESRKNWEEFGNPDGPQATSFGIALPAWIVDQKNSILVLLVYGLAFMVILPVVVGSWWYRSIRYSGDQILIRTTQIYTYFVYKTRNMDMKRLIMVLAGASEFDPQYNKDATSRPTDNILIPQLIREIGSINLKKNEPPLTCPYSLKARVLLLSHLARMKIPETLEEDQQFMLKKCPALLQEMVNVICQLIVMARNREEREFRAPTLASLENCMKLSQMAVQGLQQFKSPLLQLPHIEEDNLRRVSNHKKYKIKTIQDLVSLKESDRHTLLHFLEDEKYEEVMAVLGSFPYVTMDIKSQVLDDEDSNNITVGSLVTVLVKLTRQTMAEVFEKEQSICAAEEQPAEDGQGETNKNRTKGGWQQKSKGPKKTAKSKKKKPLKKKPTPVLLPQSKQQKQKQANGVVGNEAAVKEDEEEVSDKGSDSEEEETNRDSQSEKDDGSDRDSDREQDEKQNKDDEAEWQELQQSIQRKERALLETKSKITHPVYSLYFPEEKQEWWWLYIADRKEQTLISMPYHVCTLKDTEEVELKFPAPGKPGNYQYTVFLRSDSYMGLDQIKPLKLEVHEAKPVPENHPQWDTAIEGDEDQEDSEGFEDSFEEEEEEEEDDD
UniProt Q9UK45: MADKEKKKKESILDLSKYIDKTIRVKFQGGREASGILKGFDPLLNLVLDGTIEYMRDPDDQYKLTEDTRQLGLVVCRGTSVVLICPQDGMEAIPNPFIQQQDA
UniProt Q9UHW5, whole entry: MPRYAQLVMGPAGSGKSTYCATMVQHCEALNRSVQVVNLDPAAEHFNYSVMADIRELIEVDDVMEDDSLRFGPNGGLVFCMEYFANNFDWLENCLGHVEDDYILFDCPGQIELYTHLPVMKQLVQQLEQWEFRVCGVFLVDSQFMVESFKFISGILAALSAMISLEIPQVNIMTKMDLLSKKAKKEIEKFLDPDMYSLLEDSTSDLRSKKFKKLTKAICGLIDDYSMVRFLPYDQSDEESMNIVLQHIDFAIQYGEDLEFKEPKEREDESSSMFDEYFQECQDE

Compound: Nc1ncnc2c1ncn2[C@@H]1O[C@H](COP(=O)(O)OP(=O)(O)OP(=O)(O)O)[C@@H](O)[C@H]1O [adenosine triphosphate]
Assay: NP40-soluble protein abundance relative to vehicle (solubility fold change) (ratio); higher = more soluble protein in presence of ATP
Method in brief: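 Jurkat crude lysate prepared with a Dounce homogeniser was treated at eight concentrations spanning 0.1 to 10 mM, 10 min at room temperature then 3 min at 37 °C. Solubilisation with 0.8% NP40 and benzonase and ultracentrifugation preceded TMT labelling of the supernatant for LC-MS/MS. Fold change against the detergent-processed vehicle was determined per replicate from vsn-normalised intensities, across three independent experiments.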

Target	NP40-soluble protein abundance (concentration: 1mM)	NP40-soluble protein abundance (concentration: 2mM)	NP40-soluble protein abundance (concentration: 4mM)	NP40-soluble protein abundance (concentration: 6mM)	NP40-soluble protein abundance (concentration: 8mM)	NP40-soluble protein abundance (concentration: 10mM)
VTI1B (UniProt Q9UEU0)	1.07 ± 0.052	1.02 ± 0.021	1.04 ± 0.034	1.08 ± 0.064	1.05 ± 0.021	0.988 ± 0.082
EPDR1 (UniProt Q9UM22)	1.01 ± 0.041	1 ± 0.03	0.938 ± 0.031	0.987 ± 0.053	0.927 ± 0.019	0.936 ± 0.019
RERE (UniProt Q9P2R6)	0.95 ± 0.049	0.953 ± 0.038	0.984 ± 0.046	0.967 ± 0.022	0.946 ± 0.05	0.933 ± 0.05
CHMP2B (UniProt Q9UQN3)	1.12 ± 0.1	1.13 ± 0.05	1.09 ± 0.12	1.15 ± 0.05	1.05 ± 0.08	1.08 ± 0.041
AKAP11 (UniProt Q9UKA4)	1.008 ± 0.0078	0.96 ± 0.036	0.939 ± 0.017	0.955 ± 0.11	0.934 ± 0.068	0.943 ± 0.051
UniProt Q9Y250 and related entries	1.03 ± 0.031	1.04 ± 0.13	1.03 ± 0.082	1.04 ± 0.095	1.08 ± 0.095	1.06 ± 0.083
ANAPC7 (UniProt Q9UJX3)	0.996 ± 0.043	1 ± 0.014	0.993 ± 0.04	1.01 ± 0.042	0.983 ± 0.046	1.004 ± 0.0041
SLC5A6 (UniProt Q9Y289)	0.962 ± 0.025	0.944 ± 0.084	0.956 ± 0.021	0.9682 ± 0.0024	0.836 ± 0.035	0.931 ± 0.056
UniProt Q9UL03 and related entries	1.09 ± 0.056	1.1 ± 0.1	1.14 ± 0.096	1.13 ± 0.18	1.25 ± 0.16	1.2 ± 0.082
MRTO4 (UniProt Q9UKD2)	1.05 ± 0.048	1.09 ± 0.023	1.06 ± 0.012	1.02 ± 0.12	0.962 ± 0.036	1.04 ± 0.043
UniProt Q9UBI1 and related entries	1.04 ± 0.015	1.028 ± 0.0053	1.02 ± 0.027	1.02 ± 0.031	1.06 ± 0.046	1.03 ± 0.058
DNAJB4 (UniProt Q9UDY4)	0.878 ± 0.036	0.851 ± 0.042	0.847 ± 0.044	0.824 ± 0.016	0.824 ± 0.023	0.86 ± 0.037
ARPP21 (UniProt Q9UBL0)	0.924 ± 0.056	0.947 ± 0.036	0.944 ± 0.024	0.972 ± 0.042	0.915 ± 0.024	0.933 ± 0.045
NXF1 (UniProt Q9UBU9)	1.1 ± 0.039	1.109 ± 0.007	1.22 ± 0.059	1.26 ± 0.05	1.42 ± 0.092	1.54 ± 0.079
HMGXB4 (UniProt Q9UGU5)	1.08 ± 0.05	1.07 ± 0.016	1.14 ± 0.032	1.09 ± 0.031	1.08 ± 0.08	1.163 ± 0.0075
CGGBP1 (UniProt Q9UFW8)	1.03 ± 0.071	1.04 ± 0.051	1.03 ± 0.041	1.1 ± 0.042	1.09 ± 0.014	1.03 ± 0.077
UniProt Q9UPQ9-1|Q9UPQ9 and related entries	0.979 ± 0.078	1.05 ± 0.055	1.02 ± 0.039	1.09 ± 0.064	1.02 ± 0.046	1.06 ± 0.051
CGN (UniProt Q9P2M7)	1.07 ± 0.059	1.09 ± 0.032	1.09 ± 0.015	1.13 ± 0.021	1.08 ± 0.012	1.08 ± 0.018
UniProt Q9UI26 and related entries	1.02 ± 0.13	1.04 ± 0.078	1.04 ± 0.049	0.993 ± 0.1	1.03 ± 0.011	1.06 ± 0.055
STUB1 (UniProt Q9UNE7)	0.958 ± 0.062	0.934 ± 0.049	0.934 ± 0.036	0.927 ± 0.047	0.942 ± 0.049	0.898 ± 0.015
SCML2 (UniProt Q9UQR0)	1.13 ± 0.043	1.16 ± 0.024	1.21 ± 0.041	1.24 ± 0.036	1.21 ± 0.016	1.23 ± 0.017
AASS (UniProt Q9UDR5)	1.03 ± 0.088	1.01 ± 0.046	1 ± 0.051	0.968 ± 0.082	1.02 ± 0.025	0.993 ± 0.021
SEC63 (UniProt Q9UGP8)	1.01 ± 0.03	1.01 ± 0.023	0.962 ± 0.05	0.999 ± 0.042	0.976 ± 0.028	0.947 ± 0.025
LSM7 (UniProt Q9UK45)	0.894 ± 0.029	0.923 ± 0.04	0.913 ± 0.03	0.898 ± 0.032	0.921 ± 0.052	0.894 ± 0.023
MAN1B1 (UniProt Q9UKM7)	1.04 ± 0.044	1.06 ± 0.059	1.1 ± 0.084	1.06 ± 0.073	1.12 ± 0.062	1.09 ± 0.098
UniProt Q9UHW5 and related entries	0.997 ± 0.074	1 ± 0.06	0.967 ± 0.085	0.957 ± 0.087	0.988 ± 0.076	0.993 ± 0.091

Part of the list above, limited to NP40-soluble protein abundance (concentration: 1mM) and NP40-soluble protein abundance (concentration: 8mM):
Target,NP40-soluble protein abundance (concentration: 1mM),NP40-soluble protein abundance (concentration: 8mM)
VTI1B (UniProt Q9UEU0),1.07 ± 0.052,1.05 ± 0.021
EPDR1 (UniProt Q9UM22),1.01 ± 0.041,0.927 ± 0.019
